Percent effect of library compounds

By UniProt entry, the sequences of proteins in these tests, tags left out.
UniProt P9WPC5, whole entry: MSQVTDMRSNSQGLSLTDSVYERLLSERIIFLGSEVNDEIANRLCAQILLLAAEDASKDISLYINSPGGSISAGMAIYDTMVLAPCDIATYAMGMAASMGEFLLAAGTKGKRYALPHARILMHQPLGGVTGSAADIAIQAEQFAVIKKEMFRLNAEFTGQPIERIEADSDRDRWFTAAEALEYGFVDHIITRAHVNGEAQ
UniProt P9WPC3, whole entry partner: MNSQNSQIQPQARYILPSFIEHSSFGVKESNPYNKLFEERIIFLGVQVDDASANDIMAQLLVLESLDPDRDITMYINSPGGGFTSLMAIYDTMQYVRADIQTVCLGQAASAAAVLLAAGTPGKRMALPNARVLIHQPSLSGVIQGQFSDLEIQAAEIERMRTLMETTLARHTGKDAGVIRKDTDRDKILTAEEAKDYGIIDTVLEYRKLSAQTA

Each number is a percent effect as filed. The controls that fix the scale are not given in the record; negative values are as filed. This is an unselected part of the compounds tested.

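Protease assay of ClpP1P2, read by the AMC dye that it sets free. Target: ClpP1P2, Mycobacterium tuberculosis (UniProt P9WPC5 and UniProt P9WPC3). Concentration: 50 µM. Higher reads as stronger inhibition, judged from the few compounds that gave an IC50. Most other retested compounds had strongly negative values. Of about 69,000 compounds tested this way, about 10 (0.015%) reached 50% or more in at least one test.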

SMILES	percent effect
CCN(CC)C(=O)CSc1nc2cc(C)nc-2c(O)n1Cc1ccco1	-17.69
COCC1CC2(CCN(S(=O)(=O)C3CC3)CC2)CN1c1ncccn1 (stereo not given)	10.01
CCOC(=O)[C@H]1[C@@H](O)C(=O)N(C)C12CCN(S(=O)(=O)CC)CC2	5.779
CCc1nc(C)cc(N2CCCC(C(=O)c3ccc(OC)cc3C)C2)n1 (stereo not given)	-15.22
COc1ccc(Cl)cc1CN(C)CC(=O)/N=c1\cc[nH]n1C(C)C1CC1 (stereo not given)	-5.373
CN1CCCC(c2cccc(CCC(=O)NCc3ccccn3)n2)C1 (stereo not given)	11.3
CN(c1ncc(C(=O)NCc2ccccc2)c(N)n1)C1CCCCC1	-6.957
COc1ccc(OC2CCN(C(=O)CCc3n[nH]c(C)n3)CC2)cc1	7.74
OCCN1CCC2(CC1)CC(NCc1ccccn1)c1ccccc1O2 (stereo not given)	-2.131
CC(=O)N1CCN(c2ccc(Cl)nn2)C(=O)C1	-10.47
Cc1cc(CN2CCN(Cc3ccc(C#N)cc3OC(F)F)CC2)no1	-5.473
Cc1noc(C2(C)CCCN(C(=O)c3cccnc3)C2)n1 (stereo not given)	-3.599
O=C(CCc1nc(Cl)n[nH]1)N1CCC2(CCCN(CC3CCC3)C2=O)C1 (stereo not given)	-15.49
N#Cc1cccc(CN2CC[C@@H]3CO[C@@H](CN4CCCC4)[C@@H]3C2)c1	11.95
NC(=O)CN1CCN(c2ccnc3c(F)ccc(F)c23)CC1	14.86
NC(=O)C(CNC(=O)CCc1ccccc1)Cc1ccc(F)cc1 (stereo not given)	-2.891
CCc1nn2c(=N)c(C#N)n[nH]c2c1-c1ccc(OC)cc1	-3.596
Cc1ccc(OCC(=O)Nc2ccc(S(C)(=O)=O)cc2)cc1C	5.93
NC(=O)CN1CCCC(C(=O)N2CCC(Oc3ncccn3)CC2)C1 (stereo not given)	-12
COCCN1CCN(Cc2ccncc2)c2ncccc2C1	-6.056
Cc1cc(C)cc(C2(C(=O)N3CCCC(n4cncn4)C3)CC2)c1 (stereo not given)	5.423
CC(C)CC(CCO)CNC(=O)N1CCOC2(CCCC2)C1 (stereo not given)	-5.007
CC(C)CN1CCCC2(CCN(C(=O)c3cnccn3)C2)C1 (stereo not given)	-19.92
CNc1ncc2c(n1)CN(CCc1ccc(F)cc1)C2=O	-14.1
CCc1nc(CN2CCCN(CC(O)c3ccccc3)CC2)no1 (stereo not given)	9.651
COC(=O)[C@H]1C[C@@H](O)CCN1S(=O)(=O)c1ccc(F)cc1F	-12.23
O=C(c1ccc(F)c(F)c1)N1CCCC(Nc2ccc(F)cc2)C1 (stereo not given)	-6.384
O=S(=O)(c1ccccc1)N1CCC2(CCCN2Cc2cccc(F)c2)C1 (stereo not given)	-0.7196
Fc1cccc(N2CCc3ncnc(C4CC4)c3CC2)c1	4.78
CCn1cncc1CNC(=O)c1ccc(C2CCCN2C(=O)COC)s1 (stereo not given)	-8.937
CN(C)C1CCN(C(=O)c2n[nH]c3c2CCN(CC2CCC2)C3)CC1	16.06
CCN(Cc1cnn(C)c1)C[C@H]1CC[C@@H](Cc2ccc(OC)nc2)O1	-4.891
Cc1nc(CO[C@@H]2CC[C@H]3[C@H]2OCCN3Cc2cccnc2)cs1	19.91
COCC1N(C(=O)c2ccco2)[C@H]2CC[C@]1(O)CC2 (stereo not given in full)	-13.06
CCCC(=O)N1CCC(c2cc3cccnc3c(O)n2)CC1	-7.669
CO[C@H]1CCN(c2nnc(C)s2)C[C@@H]1Cc1ccccc1	-17.62
N[C@H]1CCCN(C(=O)c2cnc(COc3ccccc3)nc2O)C1	6.202
COc1cc(N2CCC(c3nccn3Cc3ccccn3)CC2)ncn1	-8.037
O=C(Nc1ccc(-n2ccnc2)c(F)c1)C1CCN(C(=O)C2CC2)CC1	12.31
Cc1cccc(CN2CCn3c(COc4ncccn4)nnc3C2)n1	10.05
COc1ccc(CNC(=O)Nc2ccc(CN3CCOC3=O)cc2)cc1	1.899
Cc1nc(C)n(C2CCCN(C(=O)Cc3csc(C(C)C)n3)C2)n1 (stereo not given)	-37.9
CC(C)=CCN1CCC2(CC1)c1ccccc1[C@@H](N1CCSCC1)[C@@H]2O	-9.378
O=C(Cc1ccc(F)cc1)NS(=O)(=O)c1ccc(F)c(F)c1	-0.1712
O=c1cccnn1CC1CN(Cc2ccsc2)Cc2nccn2C1 (stereo not given)	3.591
Cc1nn(C)c(Oc2cccc(F)c2)c1NC(=O)C1CCOCC1	12.28
CCC(C)Nc1ccc(-c2nc(-c3cccc(OC)c3OC)no2)cn1 (stereo not given)	-3.213
O=C(Nc1cc(C2CCOCC2)[nH]n1)c1cc[nH]n1	-6.222
Cc1ccc(CNC(=O)c2c[nH]nc2NC(=O)C2CCC2)cc1	-2.935
CC(C)N(C)C(=O)Cn1ncc(N(C)CCc2ccccc2)cc1=O	-10.95
CNc1ncccc1C(=O)N1CCc2c(nc(N)[nH]c2=O)C1	-8.575
COC1CCCN(CCCc2cn[nH]c2)C1 (stereo not given)	-5.317
CC(C)c1nc2n(n1)CC(NCc1nnc(C(C)C)o1)CC2 (stereo not given)	15.66
Cn1nc2c(cc1=O)CN(Cc1nnc(C3CC3)o1)CC2	9.703
CCN(CC)C(=O)CCCNC(=O)Cc1nc(-c2ccco2)oc1C	-12.47
Cc1cccc(C(C(=O)N(C)Cc2ccco2)N(C)C)c1 (stereo not given)	7.879
Cc1cc(C)n(C2CCCN(C(=O)c3ccc(N(C)C)nc3)C2)n1 (stereo not given)	-19.27
Cc1csc(CNC(=O)NCC2(c3ccc4c(c3)OCO4)CC2)n1	9.806
CCN(Cc1ccc2c(c1)OCCO2)C(=O)NCCc1cnn(C)c1	-8.241
Cc1cccc(CN2C(=O)CCC23CCN(C(=O)c2ccco2)CC3)c1	0.2881
Cc1ccc(C)c(NC(=O)N2C[C@H](N(C)C)C[C@H]2CO)c1	-11.95
CS(=O)(=O)N1CCC2(CC1)CC(NCc1ccccn1)c1ccccc12 (stereo not given)	6.531
Cc1ccc(Cl)c(NC(=O)NC2(C)CCOC2)c1 (stereo not given)	2.841
Cc1cc(C)n(CCC(=O)N2CCC(Nc3cccnn3)CC2)n1	-2.207
CC(NC(=O)NCC(F)(F)F)c1nncn1C (stereo not given)	-2.695
CC(CNS(C)(=O)=O)Oc1cccc(Cl)c1 (stereo not given)	-8.999
O=C1CCC(C(=O)Nc2cnn(-c3ccccc3Br)c2)N1 (stereo not given)	-13.25
CC(C)C(=O)N1CCN(Cc2csc(-c3ncccn3)n2)CC1	8.535
CN(C)C(=O)NCC(=O)N1CCCC2(CCC(=O)N(CC3CC3)C2)C1 (stereo not given)	-12.97
COc1cccc([C@H]2CN(C(=O)c3ccccc3)[C@@H]3CCCN[C@H]23)c1	-2.029
CCc1n[nH]c(C(=O)N2CCN(c3ccc4ccccc4c3)CC2)c1C	6.51
CCOC(=O)c1cnn(-c2cc(C)ccn2)c1N	-5.779
O=C(c1ccncn1)N1C[C@@H]2CN(Cc3cccnc3)CCO[C@@H]2C1	3.809
COCCCN(Cc1ccccn1)Cc1ccnn1C1CCCCO1 (stereo not given)	-21.42
Cn1cc(C[C@H]2[C@H](O)CCN2C(=O)C2CCOCC2)cn1	15.28

For reference, 4 entries once more:

SMILES,percent effect
NC(=O)CN1CCCC(C(=O)N2CCC(Oc3ncccn3)CC2)C1 (stereo not given),-12
CCc1nc(CN2CCCN(CC(O)c3ccccc3)CC2)no1 (stereo not given),9.651
O=C(c1ccncn1)N1C[C@@H]2CN(Cc3cccnc3)CCO[C@@H]2C1,3.809
Cc1csc(CNC(=O)NCC2(c3ccc4c(c3)OCO4)CC2)n1,9.806

Measurements from “University of Dundee, Small-Polar-MMV Screening Library” (2021), ChEMBL document CHEMBL3988442.